Experimental data published in doi:10.1101/612408.
Results are given in words; binding and its absence hold for the method and conditions named. In cells and extracts the contact can be indirect. Some results given as binding are weak or reduced against the parent protein; the word gives no strength. For some of these results: Tags and fused reporters may be left off the sequences shown.

Amino acid sequences for entries named in this document (tags omitted).
UniProt Q9C9X6: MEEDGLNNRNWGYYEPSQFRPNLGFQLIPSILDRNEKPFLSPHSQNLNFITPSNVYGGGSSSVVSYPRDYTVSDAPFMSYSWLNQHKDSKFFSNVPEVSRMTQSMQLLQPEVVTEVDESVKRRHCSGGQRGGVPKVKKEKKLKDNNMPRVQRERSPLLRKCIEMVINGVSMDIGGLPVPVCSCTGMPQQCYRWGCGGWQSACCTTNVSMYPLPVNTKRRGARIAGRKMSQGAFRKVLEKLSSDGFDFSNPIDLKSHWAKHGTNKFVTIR
UniProt O22467: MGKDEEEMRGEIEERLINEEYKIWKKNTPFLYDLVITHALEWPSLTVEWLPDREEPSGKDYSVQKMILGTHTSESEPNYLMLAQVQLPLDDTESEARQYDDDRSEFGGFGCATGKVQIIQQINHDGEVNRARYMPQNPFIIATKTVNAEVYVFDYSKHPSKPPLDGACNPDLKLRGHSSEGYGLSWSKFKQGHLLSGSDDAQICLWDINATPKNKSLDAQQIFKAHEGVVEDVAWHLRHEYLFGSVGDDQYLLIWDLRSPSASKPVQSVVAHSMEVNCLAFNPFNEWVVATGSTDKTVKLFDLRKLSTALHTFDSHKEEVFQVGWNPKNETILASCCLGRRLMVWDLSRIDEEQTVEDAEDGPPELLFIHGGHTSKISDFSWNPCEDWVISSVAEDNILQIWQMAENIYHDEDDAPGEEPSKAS
UniProt P0DKJ8: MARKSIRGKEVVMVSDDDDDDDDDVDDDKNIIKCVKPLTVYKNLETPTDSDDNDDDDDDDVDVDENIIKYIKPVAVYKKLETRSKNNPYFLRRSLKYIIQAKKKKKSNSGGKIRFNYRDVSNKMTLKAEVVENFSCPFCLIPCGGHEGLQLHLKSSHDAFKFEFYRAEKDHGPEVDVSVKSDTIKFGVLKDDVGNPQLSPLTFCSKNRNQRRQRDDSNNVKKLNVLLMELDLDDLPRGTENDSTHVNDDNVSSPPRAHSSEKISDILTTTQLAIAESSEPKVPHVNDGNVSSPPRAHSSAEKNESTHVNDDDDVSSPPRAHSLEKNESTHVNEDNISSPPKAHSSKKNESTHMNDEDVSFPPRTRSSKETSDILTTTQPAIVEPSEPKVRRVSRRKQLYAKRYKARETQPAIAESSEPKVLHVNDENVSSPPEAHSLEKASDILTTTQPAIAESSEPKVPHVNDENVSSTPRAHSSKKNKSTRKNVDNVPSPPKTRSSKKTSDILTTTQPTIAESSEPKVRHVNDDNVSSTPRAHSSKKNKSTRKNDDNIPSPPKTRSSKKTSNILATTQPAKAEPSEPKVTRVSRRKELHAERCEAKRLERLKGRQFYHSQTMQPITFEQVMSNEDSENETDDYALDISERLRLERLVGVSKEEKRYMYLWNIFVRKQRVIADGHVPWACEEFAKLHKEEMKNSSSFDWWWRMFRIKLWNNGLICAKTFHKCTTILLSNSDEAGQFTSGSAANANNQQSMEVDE

Tests used:
Assay in all cases: split reporter
BPC3 (Arabidopsis) = BPC3 (Arabidopsis) (UniProt Q9C9X6)
MEA (Arabidopsis) = molecular target: T1, MEA (Arabidopsis) (UniProt O65312)
T1 sequence: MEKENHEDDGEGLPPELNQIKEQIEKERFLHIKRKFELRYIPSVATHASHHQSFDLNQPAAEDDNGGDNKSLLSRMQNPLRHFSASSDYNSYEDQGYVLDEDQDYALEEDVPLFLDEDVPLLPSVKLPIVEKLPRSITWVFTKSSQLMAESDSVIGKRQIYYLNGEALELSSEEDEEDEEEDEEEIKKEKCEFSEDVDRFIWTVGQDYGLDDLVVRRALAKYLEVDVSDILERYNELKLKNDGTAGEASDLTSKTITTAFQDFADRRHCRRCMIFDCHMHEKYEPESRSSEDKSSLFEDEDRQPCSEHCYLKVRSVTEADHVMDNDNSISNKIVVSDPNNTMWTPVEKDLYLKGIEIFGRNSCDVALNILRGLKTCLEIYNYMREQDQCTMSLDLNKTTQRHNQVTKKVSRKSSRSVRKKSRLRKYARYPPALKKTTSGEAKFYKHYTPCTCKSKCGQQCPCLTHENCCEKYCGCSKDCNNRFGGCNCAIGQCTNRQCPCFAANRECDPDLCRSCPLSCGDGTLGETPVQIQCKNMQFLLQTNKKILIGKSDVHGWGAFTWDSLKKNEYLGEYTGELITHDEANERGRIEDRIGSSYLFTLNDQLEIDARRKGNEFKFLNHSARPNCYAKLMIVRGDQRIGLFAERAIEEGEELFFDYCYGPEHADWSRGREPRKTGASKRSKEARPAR

[1] = molecular target: T2, LIKE HETEROCHROMATIN PROTEIN1 (Arabidopsis) (UniProt Q946J8)
T2 sequence: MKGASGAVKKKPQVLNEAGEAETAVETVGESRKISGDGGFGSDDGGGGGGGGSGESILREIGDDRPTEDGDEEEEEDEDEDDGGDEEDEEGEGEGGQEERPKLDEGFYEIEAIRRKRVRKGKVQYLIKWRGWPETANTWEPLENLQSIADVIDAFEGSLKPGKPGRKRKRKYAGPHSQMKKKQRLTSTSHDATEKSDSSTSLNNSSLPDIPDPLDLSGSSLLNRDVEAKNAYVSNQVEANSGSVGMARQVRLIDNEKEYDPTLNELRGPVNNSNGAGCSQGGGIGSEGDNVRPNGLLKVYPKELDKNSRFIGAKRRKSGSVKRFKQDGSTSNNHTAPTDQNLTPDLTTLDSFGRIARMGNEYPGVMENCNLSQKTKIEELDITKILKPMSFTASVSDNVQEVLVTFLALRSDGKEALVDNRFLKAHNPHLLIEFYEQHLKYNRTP

[2] = molecular target: T3, FIERY (FIE) (Arabidopsis) (UniProt Q9LT47)
T3 sequence: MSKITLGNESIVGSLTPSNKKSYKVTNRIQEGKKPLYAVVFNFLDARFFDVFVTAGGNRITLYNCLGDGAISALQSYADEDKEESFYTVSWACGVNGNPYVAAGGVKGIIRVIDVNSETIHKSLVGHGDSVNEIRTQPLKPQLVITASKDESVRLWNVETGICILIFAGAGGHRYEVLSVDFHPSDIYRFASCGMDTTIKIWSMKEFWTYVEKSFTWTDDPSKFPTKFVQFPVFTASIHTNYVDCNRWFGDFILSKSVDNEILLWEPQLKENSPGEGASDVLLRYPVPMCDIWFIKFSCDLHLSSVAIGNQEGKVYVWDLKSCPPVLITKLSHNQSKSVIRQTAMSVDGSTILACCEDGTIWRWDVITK

MSI1 (Arabidopsis) = MSI1 (Arabidopsis) (UniProt O22467)
FIS2 (Arabidopsis) = FIS2 (Arabidopsis) (UniProt P0DKJ8)
BPC1 (Arabidopsis) = molecular target: T4, BPC1 (Arabidopsis) (UniProt Q9SKD0)
T4 sequence: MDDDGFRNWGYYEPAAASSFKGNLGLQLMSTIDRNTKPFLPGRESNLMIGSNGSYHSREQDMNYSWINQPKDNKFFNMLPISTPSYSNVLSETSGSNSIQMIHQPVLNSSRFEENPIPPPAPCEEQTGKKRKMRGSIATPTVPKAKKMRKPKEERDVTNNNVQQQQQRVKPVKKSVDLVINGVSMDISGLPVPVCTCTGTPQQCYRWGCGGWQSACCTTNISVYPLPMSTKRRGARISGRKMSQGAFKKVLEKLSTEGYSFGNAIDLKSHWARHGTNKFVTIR

BPC2 (Arabidopsis) = molecular target: T5, BPC2 (Arabidopsis) (UniProt Q9LDE2)
T5 sequence: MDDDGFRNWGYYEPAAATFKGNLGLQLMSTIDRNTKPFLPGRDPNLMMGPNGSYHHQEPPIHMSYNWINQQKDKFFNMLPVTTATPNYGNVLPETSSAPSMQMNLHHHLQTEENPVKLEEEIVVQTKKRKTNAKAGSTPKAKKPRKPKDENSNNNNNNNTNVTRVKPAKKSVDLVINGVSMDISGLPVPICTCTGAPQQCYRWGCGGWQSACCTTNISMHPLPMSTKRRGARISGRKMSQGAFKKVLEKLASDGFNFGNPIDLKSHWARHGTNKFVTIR

In the case of BPC3 (from UniProt Q9C9X6 1-269), the binding (BPC3 (Arabidopsis)) is reported as “binds”, the binding (MEA (Arabidopsis)) is reported as “binds” and the binding [1] is reported as “no binding”. For the same molecule, the binding [2] was “no binding”, the binding (MSI1 (Arabidopsis)) was “binds” and the binding (FIS2 (Arabidopsis)) was “binds”.

B1: BPC1 (protein, UniProt Q9SKD0 1-283)
chain: T4 sequence
B1 was tested, and the binding (BPC3 (Arabidopsis)) was “binds”, the binding (BPC1 (Arabidopsis)) was “no binding” and the binding (MEA (Arabidopsis)) was “binds”. For the same molecule, the binding [1] was “no binding”, the binding [2] was “binds” and the binding (BPC2 (Arabidopsis)) was “binds”. For the same molecule, the binding (MSI1 (Arabidopsis)) was “binds” and the binding (FIS2 (Arabidopsis)) was “binds”.

B2: BPC2 (protein, UniProt Q9LDE2 1-279)
chain: T5 sequence
B2 was tested, and the binding (BPC3 (Arabidopsis)) was “binds”, the binding (MEA (Arabidopsis)) was “binds” and the binding [1] was “no binding”. The binding [2] was “binds”, the binding (BPC2 (Arabidopsis)) was “binds” and the binding (MSI1 (Arabidopsis)) was “binds”. For the same molecule, the binding (FIS2 (Arabidopsis)) was “binds”.

B3: FUSCA3 (protein, UniProt Q9LW31 1-313)
chain: MMVDENVETKASTLVASVDHGFGSGSGHDHHGLSASVPLLGVNWKKRRMPRQRRSSSSFNLLSFPPPMPPISHVPTPLPARKIDPRKLRFLFQKELKNSDVSSLRRMILPKKAAEAHLPALECKEGIPIRMEDLDGFHVWTFKYRYWPNNNSRMYVLENTGDFVNAHGLQLGDFIMVYQDLYSNNYVIQARKASEEEEVDVINLEEDDVYTNLTRIENTVVNDLLLQDFNHHNNNNNNNSNSNSNKCSYYYPVIDDVTTNTESFVYDTTALTSNDTPLDFLGGHTTTTNNYYSKFGTFDGLGSVENISLDDFY
In the case of B3, the binding (BPC3 (Arabidopsis)) is reported as “no binding”, the binding (BPC1 (Arabidopsis)) is reported as “no binding” and the binding (MEA (Arabidopsis)) is reported as “no binding”. For the same molecule, the binding [2] was “no binding”, the binding (BPC2 (Arabidopsis)) was “no binding” and the binding (MSI1 (Arabidopsis)) was “no binding”. The binding (FIS2 (Arabidopsis)) was “no binding”.
